Consider one sequence from article PMC10611921.

For at least one entry, the source does not settle the construct or the ends of the probe. A negative result means that nothing was seen under these conditions.

This data set has as its system YY1 + FOXP2 FHD. As to the kind of experiment: EMSA. The settings on record: no simultaneous binding, proteins compete for DNA, YY1 2.5-7.5 uM; EMSA: 0.5 uM DNA, 20% (v/v) of binding buffer (10 mM HEPES pH 7.5, 1 mM MgCl2, 100 mM KCl, 10% glycerol, 0.1 mg/ml BSA), protein from 100 mM NaCl, overnight at 4 C; recombinant protein; protein details: N-terminal His6,His6 removed with thrombin. On the technique in general: A gel shift assay detects complexes by their altered migration in electrophoresis.

Turning to “TTTGATTGTTTACTTTGTTC (double strand) [CNTNAP2 DNA]”, the binding result was “no binding”.
